Record: PubChem BioAssay AID1224827 (NIAID, 2016)
The deposit covers about 3,800 reagents; shown is a part drawn at random. In the full data, about 2,200 (57%) are marked active. 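Active means a strong reporter change in either direction; calls are per siRNA, not per gene; qiagen siRNAs gave weaker effects.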 No sequences are given here.

Screen: 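Confirm genes whose knock-down changes LPS-driven TNF promoter activity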 (follow-up of hits)
Cell system: RAW264.7 G9 mouse macrophage reporter clone
Knock-down reagent: single siRNA against mouse genes, 100 nM siRNA
Time to read-out: siRNA for 2 days, then LPS about 16 h
Conditions: bacterial lipopolysaccharide (LPS), 10 ng/ml, cells fixed after overnight (about 16 h) stimulation
Detection: 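Imaged nuclear TNF reporter intensity, background removed, scaled per plate and to non-targeting control wells, as z-scores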
Direction: TNF reporter z-score, mean and TNF reporter z-score: higher = stronger Tnf promoter reporter signal; gene median z, three same-vendor siRNAs: higher = stronger Tnf reporter signal for the gene
Active means: 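An siRNA is called active when its mean z-score over replicates is at least +2 or at most -2; control wells get no call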

| target gene | PubChem SID | TNF reporter z-score, mean | gene median z, three same-vendor siRNAs | TNF reporter z-score, repeat 1 | TNF reporter z-score, repeat 2 | outcome |
| --- | --- | --- | --- | --- | --- | --- |
| Prkab1 (protein kinase, AMP-activated, beta 1 non-catalytic subunit) | SID315484677 | -1.25 | -1.97 | -1.76 | -0.74 | inactive |
| Prkab1 (protein kinase, AMP-activated, beta 1 non-catalytic subunit) | SID315484678 | -1.97 | -1.97 | -2 | -1.94 | inactive |
| Prkab1 (protein kinase, AMP-activated, beta 1 non-catalytic subunit) | SID315484679 | -4.95 | -1.97 | -5 | -4.91 | active |
| Prkab1 (protein kinase, AMP-activated, beta 1 non-catalytic subunit) | SID315484680 | 0.337 | -1.67 | 2.07 | -1.4 | inactive |
| Prkab1 (protein kinase, AMP-activated, beta 1 non-catalytic subunit) | SID315484681 | -1.69 | -1.67 | -1.29 | -2.1 | inactive |
| Prkab1 (protein kinase, AMP-activated, beta 1 non-catalytic subunit) | SID315484682 | -2.19 | -1.67 | -2.44 | -1.94 | active |
| Gphr (golgi pH regulator) | SID315486480 | -2.99 | -3.58 | -3.06 | -2.91 | active |
| Gphr (golgi pH regulator) | SID315486481 | -4.19 | -3.58 | -2.75 | -5.63 | active |
| Gphr (golgi pH regulator) | SID315486482 | -4.3 | -3.58 | -4.1 | -4.5 | active |
| Gphr (golgi pH regulator) | SID315486483 | 0.524 | -2.08 | 2.3 | -1.25 | inactive |
| Gphr (golgi pH regulator) | SID315486484 | -1.31 | -2.08 | 0.288 | -2.92 | inactive |
| Gphr (golgi pH regulator) | SID315486485 | -3.65 | -2.08 | -3 | -4.3 | active |

An excerpt from the list above, as a working copy:
| target gene | PubChem SID | TNF reporter z-score, mean | gene median z, three same-vendor siRNAs | TNF reporter z-score, repeat 1 | TNF reporter z-score, repeat 2 | outcome |
| --- | --- | --- | --- | --- | --- | --- |
| Prkab1 (protein kinase, AMP-activated, beta 1 non-catalytic subunit) | SID315484678 | -1.97 | -1.97 | -2 | -1.94 | inactive |
| Prkab1 (protein kinase, AMP-activated, beta 1 non-catalytic subunit) | SID315484679 | -4.95 | -1.97 | -5 | -4.91 | active |

The listing continues:
| target gene | PubChem SID | TNF reporter z-score, mean | gene median z, three same-vendor siRNAs | TNF reporter z-score, repeat 1 | TNF reporter z-score, repeat 2 | outcome |
| --- | --- | --- | --- | --- | --- | --- |
| Thbs2 (thrombospondin 2) | SID315484998 | -3.9 | -4.53 | -4.02 | -3.77 | active |
| Thbs2 (thrombospondin 2) | SID315484999 | -4.53 | -4.53 | -4.76 | -4.29 | active |
| Thbs2 (thrombospondin 2) | SID315485000 | -5.91 | -4.53 | -5.22 | -6.61 | active |
| Thbs2 (thrombospondin 2) | SID315485001 | 3.06 | 0.291 | 5.58 | 0.546 | active |
| Thbs2 (thrombospondin 2) | SID315485002 | 1.82 | 0.291 | 3.99 | -0.351 | inactive |
| Thbs2 (thrombospondin 2) | SID315485003 | -1.17 | 0.291 | 0.0367 | -2.39 | inactive |
| Ttc29 (tetratricopeptide repeat domain 29) | SID315486747 | -2.26 | -4.01 | -3.32 | -1.21 | active |
| Ttc29 (tetratricopeptide repeat domain 29) | SID315486748 | -4.01 | -4.01 | -3.98 | -4.03 | active |
| Ttc29 (tetratricopeptide repeat domain 29) | SID315486749 | -4.64 | -4.01 | -4.43 | -4.85 | active |
| Ttc29 (tetratricopeptide repeat domain 29) | SID315486750 | 2.91 | 0.0515 | 4.45 | 1.37 | active |
| Ttc29 (tetratricopeptide repeat domain 29) | SID315486751 | 0.508 | 0.0515 | 2.3 | -1.28 | inactive |
| Ttc29 (tetratricopeptide repeat domain 29) | SID315486752 | -2.03 | 0.0515 | -2.79 | -1.26 | active |
